# Experimental data from PubChem BioAssay AID2685 (National Center for Advancing Translational Sciences (NCATS), 2010).
# Among all 320,000 compounds or so, about 2,100 (0.66%) were called active. Inconclusive results, whose numbers are uncertain, are shown with a selection of clear calls. Calls follow the shape of the dose curve; as a rule, active = well fitted inhibition curve with a large enough effect in the signal ratio, with a control signal flat (not every such curve was filed as active); inconclusive = small, poorly fitted or top-dose-only effect, or effect the other way, or a change in a side signal; inactive = flat fitted curve, though single readings scatter; the % refers to the signal ratio. A potency beside an inconclusive call is a rough fit, not a confirmed value.
# Assay: qHTS Assay for Lipid Storage Modulators in Drosophila S3 Cells
# Conditions: BODIPY lipid droplet fluorescence, 18-24 h, cells fed with added oleic acid; lipid storage change, negative = inhibition: at 46.1 µM (top of the series) unless noted
# Outline: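 Laser-scanning cytometry quantifies lipid droplet accumulation (500–530 nm total intensity; droplet/cell object ratio) in oleic acid-fed (400 uM added) Drosophila S3 cells treated with a concentration series. 20 uM Triacsin C defined 100% inhibition.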
# % is scaled to controls: 0 for no effect and ±100 for the full control effect; potency is read from the fitted curve at half-maximal effect.
SMILES,"lipid storage change, negative = inhibition",Potency
CCS(=O)(=O)c1ccc2oc(SCC(=O)Nc3ccc(OC)cc3)nc2c1,inactive,–
C/C(=N\NC(=O)c1nn(C)cc1Br)c1cccc(NC(=O)c2ccncc2)c1,–,"inconclusive: 9.2 µM [activator, partial curve]"
Cc1ccc(N(C(=O)CCC(=O)Nc2cc(C)on2)C(C(=O)NC2CCCC2)c2ccncc2)cc1 (centres undefined),–,"inconclusive: 1.03 µM [activator, full curve, poor fit]"
COCc1c(C(=O)OC)nnn1-c1ccc(C(F)(F)F)cc1[N+](=O)[O-],inconclusive: -25%,–
CC(C)OC(=O)CSc1nc2ncccc2[nH]1,inconclusive: 10.2%,–
CCCCCC(=O)Nc1ccc(S(=O)(=O)Nc2nccc(C)n2)cc1,inconclusive: -0.182%,–
COc1ccccc1OCCCOc1c(C)cc(C)cc1Br,inconclusive: 34.5% [activator],–
CCCCN(C(=O)CSCC(=O)Nc1ccc(C)cc1)c1c(N)n(CC(C)C)c(=O)[nH]c1=O,inconclusive: -27.5%,–
NS(=O)(=O)c1cc2c(cc1Cl)NC(Cc1ccccc1)NS2(=O)=O (centres undefined),–,"inconclusive: 20.6 µM [falling, single point]"
COCCSc1ccccc1C(=O)Nc1ccc(S(=O)(=O)N2CCOCC2)cc1,–,"inconclusive: 3.66 µM [falling, single point]"
CC(C(=O)Nc1cc(C(F)(F)F)ccc1N1CCOCC1)N1C(=O)C2CCCCC2C1=O (centres undefined),–,"inconclusive: 1.3 µM [falling, full curve, poor fit]"
Cn1c(SCC(=O)c2cccs2)nnc1-c1ccco1,inconclusive: -9.19%,–
CC(C)(C)c1ccccc1OCC(=O)Nc1ncn[nH]1,inconclusive: 39.5%,–
COc1cccc(N(C(=O)Cn2nnc(-c3ccc(C)cc3)n2)C(C(=O)NC(C)(C)C)c2c[nH]c3ccccc23)c1 (centres undefined),inconclusive: -47.3%,–
COC(=O)c1ccc(/C=C/c2ccc3cccc(OC(C)=O)c3n2)cc1,inconclusive: -52.2%,–
CCOC(=O)c1c(N)sc(N)c1C(=O)OCC,inconclusive: -5.83%,–
O=C(CN1C(=O)C2C3C=CC(C4CC34)C2C1=O)Nc1cnc2ccccc2c1 (centres undefined),inconclusive: -6.66%,–
CC1(C(=O)Nc2ccc3c(c2)OCO3)CC1(Cl)Cl (centres undefined),inconclusive: 8.74%,–
Cc1cccc(NS(=O)(=O)c2cccs2)n1,inconclusive: -15%,–
O=C(O)c1cc(-c2ccc(/C=N/N3C(=O)C4C5C=CC(C6CC56)C4C3=O)o2)ccc1Cl (centres undefined),inconclusive: 49.6%,–
CCOC(=O)C1(C)/C(=N/Nc2ccccc2)C(=O)C(=O)N1c1ccccc1 (centres undefined),inconclusive: 23.2%,–
O=C(O)CCCCCCCCCCCc1ccccc1,inconclusive: -0.837%,–
COc1cccc(-c2ccc(NC(=O)C3CCCN(Cc4cnc(N(C)C)s4)C3)cc2)c1 (centres undefined),–,"inconclusive: 6.51 µM [activator, single point]"
O=C(Cc1cccs1)NC(Cc1c[nH]c2ccccc12)C(=O)O (centres undefined),inconclusive: 74.7%,–
CCOc1ccc(NS(=O)(=O)c2ccc(C(=O)NCC(c3ccccc3OC)N3CCCC3)cc2)cc1 (centres undefined),inconclusive: 15.3%,–
Cc1cc2oc(C(=O)Nc3ccc(S(=O)(=O)Nc4ncccn4)cc3)cc(=O)c2cc1Cl,inconclusive: 22.6%,–
COCc1nnc(NS(=O)(=O)c2ccc(F)cc2)s1,inactive,–

# Compounds listed so far with a tert-butyl group:
SMILES,"lipid storage change, negative = inhibition",Potency
CC(C)(C)c1ccccc1OCC(=O)Nc1ncn[nH]1,inconclusive: 39.5%,–
COc1cccc(N(C(=O)Cn2nnc(-c3ccc(C)cc3)n2)C(C(=O)NC(C)(C)C)c2c[nH]c3ccccc23)c1 (centres undefined),inconclusive: -47.3%,–

# Rewritten as tab-separated lines: part of the list above
SMILES	lipid storage change, negative = inhibition	Potency
COc1cccc(-c2ccc(NC(=O)C3CCCN(Cc4cnc(N(C)C)s4)C3)cc2)c1 (centres undefined)	–	inconclusive: 6.51 µM [activator, single point]
O=C(Cc1cccs1)NC(Cc1c[nH]c2ccccc12)C(=O)O (centres undefined)	inconclusive: 74.7%	–

# Next records:

SMILES,"lipid storage change, negative = inhibition",Potency
Cc1ccc(-n2nnnc2SCC(=O)NCC2(N3CCOCC3)CCCCC2)cc1,inconclusive: -14.3%,–
CCOC(=O)CNS(=O)(=O)c1cc(-c2nnc(Nc3ccc4c(c3)OCO4)c3ccccc23)ccc1C,–,"inconclusive: 29.1 µM [falling, single point]"
O=C(COc1ncnc2ccccc12)Nc1ccccc1[N+](=O)[O-],inconclusive: 8.2%,–
Cc1ccc(S(=O)(=O)N2CCN(C(=O)c3ccc(N4CCCCC4)c([N+](=O)[O-])c3)CC2)cc1,inconclusive: -100%,–
CSc1nc2c(c(=O)n1C)SC(C)C2 (centres undefined),inconclusive: 10.3%,–
COc1ccccc1N(CN1CCCC1=O)C(=O)c1ccccc1F,inconclusive: 13.3%,–
Cc1cc2ncc(C(N)=O)cn2n1,–,"inconclusive: 7.31 µM [falling, single point]"
COC(=O)c1cc2c(ccn2-c2ccc(F)cc2)n1Cc1cccc(OC)c1,inconclusive: 17.6%,–
COc1ccc(-c2c3c(=O)n(C)c(=O)n(C)c3cn2Cc2ccccn2)cc1,inconclusive: 10.5%,–
Cc1ccc2c(c1)NC(c1cccs1)C1=C(CC(C)(C)CC1=O)N2 (centres undefined),inconclusive: -3.16%,–
CC(=O)Oc1ccccc1-c1nc(C)nc(N(C)C(C)=O)n1,–,"inconclusive: 2.06 µM [activator, partial curve, poor fit]"
Cc1cc(NC(=O)c2sc(Nc3ccc(F)cc3)nc2N)no1,inconclusive: -72.6%,–
Cc1ccc(OCC(=O)NCCN2CCCC2)cc1,inconclusive: 3.9%,–
COc1cccc(CNC(=O)c2ccc(C)c(S(=O)(=O)N3CCCCC3)c2)c1,–,"inconclusive: 18.4 µM [falling, single point]"
Clc1ccc2c(N/N=C/c3cccnc3)ccnc2c1,inactive,–
CC1=C(C(=O)N2CCCC(N3CCN(c4ccccc4C)CC3)C2)OCCO1 (centres undefined),–,"inconclusive: 32.6 µM [falling, single point]"
CC(C)NC(=O)CSc1nnc(-c2ccc(F)cc2)c2ccccc12,inconclusive: -10.1%,–
COc1ccc(-c2nnc(SCC(=O)NC(C)C)n2CC2CCCO2)cc1OC (centres undefined),inconclusive: 40.5%,–
CN(C)S(=O)(=O)c1cccc(NC(=O)CCc2nc3sc4c(c3c(=O)[nH]2)CCCC4)c1,inconclusive: -41%,–
CC(c1ccccc1)N1C(=O)OC(C)(C)C1(C)O (centres undefined),inconclusive: 43.2%,–
CCN1C(=O)c2ccccc2Sc2ccc(C(=O)NCCCN3CCCCC3)cc21,–,"inconclusive: 16.4 µM [activator, partial curve]"
COc1ccc(C(=O)NCC(C)CN(C)C)cc1 (centres undefined),–,"inconclusive: 6.51 µM [falling, single point]"
Cc1ccc(NC(=O)COC(=O)Cn2c(C)csc2=O)cc1,inconclusive: 34.7%,–
COc1ccc(-c2[nH]ncc2CN2CCC(O)(c3ccc(Cl)cc3)CC2)cc1,inconclusive: 4.46%,–
Nc1c(C(=O)N/N=C/c2ccccc2)cnn1-c1ccccc1,inconclusive: 6.26%,–
CC(C)c1nnc(NC(=O)CCc2ccccc2)s1,inconclusive: 10.8%,–
CS(=O)(=O)c1ccc2nc(NC(=O)C3=NN(c4ccccc4)C(=O)CC3)sc2c1,inconclusive: -17.3%,–

SMILES,"lipid storage change, negative = inhibition",Potency
NS(=O)(=O)c1ccc(CNC(=O)c2cccc(Oc3ccccc3)c2)cc1,inconclusive: -58%,–
COc1cc(/C=N/NS(=O)(=O)c2ccc3ccccc3c2)ccc1OCCN1CCOCC1,inconclusive: 35.5% [activator],–
CC(=O)Nc1ccc(S(=O)(=O)N[C@@H](C)C(=O)N2CCN(C/C=C/c3ccccc3)CC2)cc1,inconclusive: -11.2%,–
CN(C)/C=C1\Oc2ccc3ccccc3c2C1=O,inconclusive: -39.6%,–
Cc1ccc(CCNC(=O)CN2C(=O)COc3ccc(S(=O)(=O)N4CCOCC4)cc32)cc1,inconclusive: -65.3%,–
O=C(NCc1ccco1)NCC(F)(F)F,inconclusive: -5.09%,–
CN(C(=O)CCc1nnc(-c2ccc(-c3ccccc3)cc2)o1)C1CCOCC1,–,"inconclusive: 29.1 µM [falling, single point]"
COC(=O)C1=C(CSc2nc3ccccc3o2)NC(=O)NC1c1cc(C)ccc1C (centres undefined),inconclusive: 91.3%,–
Cc1cc(C)n2nc(C(=O)OCC(=O)N(C)C3CCCCC3)nc2n1,–,"inconclusive: 2.91 µM [falling, partial curve]"
CCOc1ccc(-n2c(Cc3cc(=O)[nH]c(=O)[nH]3)nnc2SC(C)C)cc1,inconclusive: 0.555%,–
Cc1ccc(S(=O)(=O)CC(=O)NCc2ccccc2)cc1,inconclusive: 19.4%,–
Nc1cc(=O)[nH]c(=O)n1Cc1ccco1,inconclusive: -48%,–
COP(C)(=O)c1c(C)nn(-c2ccccc2)c1C (centres undefined),inconclusive: -69.5%,–
O=C(COc1ccccc1)N/N=C/c1ccc([N+](=O)[O-])o1,–,"inconclusive: 29.1 µM [falling, single point]"
CN(CCO)Cc1csc2ccc(Br)cc12,–,"inconclusive: 0.092 µM [falling, full curve, poor fit]"
CCOC(=O)C1(Cc2cccc(OC)c2)CCCN(C(=O)c2ccccc2C)C1 (centres undefined),inconclusive: -4.35%,–
COc1cccc(CNS(=O)(=O)c2c(C(=O)N3CCCCCC3)c(C)n(C)c2C)c1,inconclusive: 41.9%,–
COc1ccc(C2=CC(=O)C[C@H](c3ccc4c(c3)OCO4)C2)cn1,–,"inconclusive: 7.31 µM [falling, single point]"
CN(Cc1ccco1)C(=O)C1CCC(=O)N1Cc1ccc(F)cc1 (centres undefined),inconclusive: 79%,–
CC(=O)c1cccc(NC(=O)CSc2nc(N3CCOCC3)nc(N3CCOCC3)n2)c1,inconclusive: 4.85%,–
CN(C)S(=O)(=O)c1ccc(Cl)c(C(=O)NNC(=O)Cn2ccc(C(F)(F)F)n2)c1,inconclusive,–
CCOC(=O)c1c(NC(=O)Cn2nnc(-c3ccc(Cl)cc3)n2)sc(C)c1C,–,"inconclusive: 4.61 µM [activator, full curve]"
Cc1cccc(NC(=O)/C=C/c2ccc3c(c2)OCO3)n1,inconclusive: 19.1%,–
Cc1ccc(-c2noc(CN3C(C)CCCC3C)n2)cc1 (centres undefined),inconclusive: -46.9%,–
COc1ccc(CCc2nnc(CCC(=O)N(C)Cc3ccnc4ccccc34)o2)cc1,inconclusive: -11.8%,–
